Measured values published in paper PMC5955124.
No constants are given. Whether binding was seen depends on the method and setting. In cells and extracts the contact can be indirect. These calls come from enrichment with a bait or labelling near it, and not all partners need be listed.

By UniProt entry, the sequences of proteins in these tests, tags left out. Residues count along the entry.
UniProt Q12913, residues 36-1337: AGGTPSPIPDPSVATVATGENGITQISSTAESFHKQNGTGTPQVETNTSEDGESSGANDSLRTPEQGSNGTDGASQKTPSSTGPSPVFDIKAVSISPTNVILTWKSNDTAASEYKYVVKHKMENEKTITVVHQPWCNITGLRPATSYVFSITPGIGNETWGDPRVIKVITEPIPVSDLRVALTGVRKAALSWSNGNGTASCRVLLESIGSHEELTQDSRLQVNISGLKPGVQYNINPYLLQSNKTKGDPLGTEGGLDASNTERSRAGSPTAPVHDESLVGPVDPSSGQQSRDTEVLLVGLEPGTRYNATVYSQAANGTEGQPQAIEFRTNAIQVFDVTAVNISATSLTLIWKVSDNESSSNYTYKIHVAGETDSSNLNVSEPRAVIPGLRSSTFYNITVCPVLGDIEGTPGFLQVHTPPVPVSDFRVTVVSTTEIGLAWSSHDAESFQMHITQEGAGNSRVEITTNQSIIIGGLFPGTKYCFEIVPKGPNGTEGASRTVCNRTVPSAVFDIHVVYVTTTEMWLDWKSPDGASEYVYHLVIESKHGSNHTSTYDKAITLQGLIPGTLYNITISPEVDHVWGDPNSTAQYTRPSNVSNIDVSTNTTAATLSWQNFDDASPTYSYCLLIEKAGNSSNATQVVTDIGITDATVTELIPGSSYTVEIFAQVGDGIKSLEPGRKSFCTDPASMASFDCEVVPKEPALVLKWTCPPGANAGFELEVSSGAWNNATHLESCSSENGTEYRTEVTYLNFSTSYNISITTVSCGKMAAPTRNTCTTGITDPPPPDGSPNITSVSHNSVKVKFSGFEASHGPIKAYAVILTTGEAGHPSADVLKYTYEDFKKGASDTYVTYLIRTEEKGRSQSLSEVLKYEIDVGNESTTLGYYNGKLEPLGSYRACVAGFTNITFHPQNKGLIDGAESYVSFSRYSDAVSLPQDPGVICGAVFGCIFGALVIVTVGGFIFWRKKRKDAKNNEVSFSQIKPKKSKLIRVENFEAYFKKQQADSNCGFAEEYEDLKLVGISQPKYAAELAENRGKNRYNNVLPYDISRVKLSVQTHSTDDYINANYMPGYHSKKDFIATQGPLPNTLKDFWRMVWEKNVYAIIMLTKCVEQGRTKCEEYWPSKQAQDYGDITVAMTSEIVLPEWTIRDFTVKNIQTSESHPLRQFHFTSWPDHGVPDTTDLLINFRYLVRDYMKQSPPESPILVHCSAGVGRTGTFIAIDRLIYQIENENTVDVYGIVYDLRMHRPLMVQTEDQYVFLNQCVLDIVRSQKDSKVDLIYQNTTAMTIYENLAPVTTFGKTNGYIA
UniProt P27824, residues 21-592: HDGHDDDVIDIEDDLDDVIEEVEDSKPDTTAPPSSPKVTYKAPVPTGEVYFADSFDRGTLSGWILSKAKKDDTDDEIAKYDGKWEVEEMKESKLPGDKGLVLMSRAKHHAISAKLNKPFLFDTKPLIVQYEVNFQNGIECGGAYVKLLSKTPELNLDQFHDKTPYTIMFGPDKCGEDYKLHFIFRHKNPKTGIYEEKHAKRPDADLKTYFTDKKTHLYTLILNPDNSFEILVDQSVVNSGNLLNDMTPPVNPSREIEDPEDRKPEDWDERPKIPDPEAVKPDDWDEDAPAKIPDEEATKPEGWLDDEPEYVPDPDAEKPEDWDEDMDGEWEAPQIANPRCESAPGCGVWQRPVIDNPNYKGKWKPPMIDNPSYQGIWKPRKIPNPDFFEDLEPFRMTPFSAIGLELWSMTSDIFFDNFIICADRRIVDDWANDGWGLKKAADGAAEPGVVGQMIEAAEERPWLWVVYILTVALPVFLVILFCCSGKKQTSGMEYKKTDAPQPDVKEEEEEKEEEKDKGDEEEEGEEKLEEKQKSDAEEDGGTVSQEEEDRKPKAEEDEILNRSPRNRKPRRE
UniProt P06396, residues 28-782: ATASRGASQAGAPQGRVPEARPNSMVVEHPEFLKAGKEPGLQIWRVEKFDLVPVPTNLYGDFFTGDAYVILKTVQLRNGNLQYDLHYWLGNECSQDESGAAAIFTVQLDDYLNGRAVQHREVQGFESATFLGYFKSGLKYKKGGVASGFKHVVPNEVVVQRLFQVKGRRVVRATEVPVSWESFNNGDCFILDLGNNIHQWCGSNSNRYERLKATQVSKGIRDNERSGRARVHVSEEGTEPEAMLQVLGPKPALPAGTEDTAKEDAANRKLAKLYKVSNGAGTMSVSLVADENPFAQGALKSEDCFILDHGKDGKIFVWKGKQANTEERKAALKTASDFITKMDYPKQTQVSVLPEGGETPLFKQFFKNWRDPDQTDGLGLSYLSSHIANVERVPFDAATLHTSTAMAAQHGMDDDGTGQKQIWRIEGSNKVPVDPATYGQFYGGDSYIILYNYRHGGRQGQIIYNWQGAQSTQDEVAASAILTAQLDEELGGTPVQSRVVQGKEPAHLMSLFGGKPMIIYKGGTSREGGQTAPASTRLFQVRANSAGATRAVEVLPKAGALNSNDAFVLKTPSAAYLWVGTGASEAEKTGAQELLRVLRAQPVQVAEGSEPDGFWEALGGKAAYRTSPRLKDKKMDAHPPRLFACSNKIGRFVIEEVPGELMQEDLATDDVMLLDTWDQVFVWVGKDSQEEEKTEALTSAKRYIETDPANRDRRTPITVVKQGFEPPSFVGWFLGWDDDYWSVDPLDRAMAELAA
UniProt P0DMV8: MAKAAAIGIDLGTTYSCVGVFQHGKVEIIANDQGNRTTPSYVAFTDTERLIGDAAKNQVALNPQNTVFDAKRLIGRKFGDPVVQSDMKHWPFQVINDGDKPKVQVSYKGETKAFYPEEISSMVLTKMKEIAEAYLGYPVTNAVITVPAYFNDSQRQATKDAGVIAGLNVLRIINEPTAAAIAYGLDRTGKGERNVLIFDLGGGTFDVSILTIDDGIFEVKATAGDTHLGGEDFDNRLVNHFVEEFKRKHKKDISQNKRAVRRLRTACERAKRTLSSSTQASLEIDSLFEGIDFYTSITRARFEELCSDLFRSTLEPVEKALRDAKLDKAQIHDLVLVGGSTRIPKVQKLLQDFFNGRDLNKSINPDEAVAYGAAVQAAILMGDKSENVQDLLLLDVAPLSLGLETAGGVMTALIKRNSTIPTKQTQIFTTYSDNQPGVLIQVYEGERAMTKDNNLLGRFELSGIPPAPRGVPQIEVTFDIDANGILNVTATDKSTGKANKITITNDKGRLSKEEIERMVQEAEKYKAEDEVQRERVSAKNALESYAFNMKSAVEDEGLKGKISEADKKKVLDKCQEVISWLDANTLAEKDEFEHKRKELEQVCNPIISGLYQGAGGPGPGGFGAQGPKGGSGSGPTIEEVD
UniProt P20020: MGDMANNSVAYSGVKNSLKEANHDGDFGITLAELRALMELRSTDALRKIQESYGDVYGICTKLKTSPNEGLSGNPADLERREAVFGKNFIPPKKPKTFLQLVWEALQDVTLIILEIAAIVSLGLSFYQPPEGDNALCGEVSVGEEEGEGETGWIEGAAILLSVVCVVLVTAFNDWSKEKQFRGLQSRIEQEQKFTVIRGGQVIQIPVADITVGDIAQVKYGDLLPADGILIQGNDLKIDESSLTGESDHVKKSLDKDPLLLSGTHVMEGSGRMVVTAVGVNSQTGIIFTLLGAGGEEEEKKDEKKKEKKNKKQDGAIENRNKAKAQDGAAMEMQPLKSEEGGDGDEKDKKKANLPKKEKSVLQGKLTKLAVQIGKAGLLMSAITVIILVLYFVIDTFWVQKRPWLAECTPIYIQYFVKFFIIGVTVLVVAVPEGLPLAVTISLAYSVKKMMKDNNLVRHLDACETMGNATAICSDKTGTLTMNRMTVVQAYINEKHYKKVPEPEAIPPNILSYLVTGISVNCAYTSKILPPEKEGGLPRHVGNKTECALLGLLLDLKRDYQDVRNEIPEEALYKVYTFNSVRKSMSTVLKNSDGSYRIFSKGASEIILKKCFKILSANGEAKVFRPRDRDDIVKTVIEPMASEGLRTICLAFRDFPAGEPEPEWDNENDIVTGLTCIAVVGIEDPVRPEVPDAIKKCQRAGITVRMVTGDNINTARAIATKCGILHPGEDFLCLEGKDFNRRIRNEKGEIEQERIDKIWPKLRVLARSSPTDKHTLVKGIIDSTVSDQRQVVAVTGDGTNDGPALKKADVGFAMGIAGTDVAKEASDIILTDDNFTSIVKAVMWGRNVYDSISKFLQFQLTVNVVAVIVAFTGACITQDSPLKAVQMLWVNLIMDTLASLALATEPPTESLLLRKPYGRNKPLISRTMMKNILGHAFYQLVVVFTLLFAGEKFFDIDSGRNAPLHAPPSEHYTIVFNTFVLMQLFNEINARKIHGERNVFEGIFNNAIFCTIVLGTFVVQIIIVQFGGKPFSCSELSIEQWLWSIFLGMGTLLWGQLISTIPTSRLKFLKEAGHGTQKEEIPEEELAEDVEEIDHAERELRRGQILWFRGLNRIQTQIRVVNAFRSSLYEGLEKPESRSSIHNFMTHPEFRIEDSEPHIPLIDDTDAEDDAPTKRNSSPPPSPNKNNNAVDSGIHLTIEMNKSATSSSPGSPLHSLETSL
UniProt P17844: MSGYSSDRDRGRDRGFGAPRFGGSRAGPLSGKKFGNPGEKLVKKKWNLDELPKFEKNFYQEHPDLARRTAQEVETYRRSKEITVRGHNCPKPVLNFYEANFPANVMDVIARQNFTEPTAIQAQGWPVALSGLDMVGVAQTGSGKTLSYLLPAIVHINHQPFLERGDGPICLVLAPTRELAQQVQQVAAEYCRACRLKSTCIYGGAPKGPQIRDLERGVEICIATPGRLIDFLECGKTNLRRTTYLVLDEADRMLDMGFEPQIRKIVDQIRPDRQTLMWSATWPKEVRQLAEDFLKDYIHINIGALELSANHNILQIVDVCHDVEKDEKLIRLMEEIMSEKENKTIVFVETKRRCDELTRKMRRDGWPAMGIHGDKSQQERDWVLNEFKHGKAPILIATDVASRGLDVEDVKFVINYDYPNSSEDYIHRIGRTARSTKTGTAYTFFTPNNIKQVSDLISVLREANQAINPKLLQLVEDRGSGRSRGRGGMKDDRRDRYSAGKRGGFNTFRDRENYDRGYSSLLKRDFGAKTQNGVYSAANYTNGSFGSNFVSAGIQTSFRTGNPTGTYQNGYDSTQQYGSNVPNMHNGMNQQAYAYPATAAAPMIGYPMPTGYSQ
UniProt P61019: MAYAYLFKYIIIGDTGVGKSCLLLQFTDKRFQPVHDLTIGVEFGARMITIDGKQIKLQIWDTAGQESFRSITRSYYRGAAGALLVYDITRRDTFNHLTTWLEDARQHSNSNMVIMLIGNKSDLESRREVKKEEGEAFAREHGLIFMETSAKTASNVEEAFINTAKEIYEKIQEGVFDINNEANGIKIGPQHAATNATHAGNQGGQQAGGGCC
UniProt P61224: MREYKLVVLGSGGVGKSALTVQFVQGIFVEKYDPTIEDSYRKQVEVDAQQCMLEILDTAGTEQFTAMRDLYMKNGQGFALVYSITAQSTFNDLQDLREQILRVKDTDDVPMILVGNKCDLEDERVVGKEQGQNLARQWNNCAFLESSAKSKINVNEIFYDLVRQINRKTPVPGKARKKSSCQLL
UniProt P61011: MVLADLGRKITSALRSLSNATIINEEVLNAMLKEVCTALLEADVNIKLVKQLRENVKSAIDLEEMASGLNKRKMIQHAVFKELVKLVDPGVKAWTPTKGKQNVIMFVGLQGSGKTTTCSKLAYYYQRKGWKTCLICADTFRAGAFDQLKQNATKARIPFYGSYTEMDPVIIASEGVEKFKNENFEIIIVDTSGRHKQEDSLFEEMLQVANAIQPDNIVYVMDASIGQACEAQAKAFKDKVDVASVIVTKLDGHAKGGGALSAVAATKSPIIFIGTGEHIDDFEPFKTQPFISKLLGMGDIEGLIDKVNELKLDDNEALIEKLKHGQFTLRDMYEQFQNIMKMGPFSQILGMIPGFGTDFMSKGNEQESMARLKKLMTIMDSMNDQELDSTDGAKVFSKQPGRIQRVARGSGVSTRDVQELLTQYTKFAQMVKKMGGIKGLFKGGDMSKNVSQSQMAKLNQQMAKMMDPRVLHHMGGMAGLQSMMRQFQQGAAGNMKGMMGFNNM
UniProt P08670: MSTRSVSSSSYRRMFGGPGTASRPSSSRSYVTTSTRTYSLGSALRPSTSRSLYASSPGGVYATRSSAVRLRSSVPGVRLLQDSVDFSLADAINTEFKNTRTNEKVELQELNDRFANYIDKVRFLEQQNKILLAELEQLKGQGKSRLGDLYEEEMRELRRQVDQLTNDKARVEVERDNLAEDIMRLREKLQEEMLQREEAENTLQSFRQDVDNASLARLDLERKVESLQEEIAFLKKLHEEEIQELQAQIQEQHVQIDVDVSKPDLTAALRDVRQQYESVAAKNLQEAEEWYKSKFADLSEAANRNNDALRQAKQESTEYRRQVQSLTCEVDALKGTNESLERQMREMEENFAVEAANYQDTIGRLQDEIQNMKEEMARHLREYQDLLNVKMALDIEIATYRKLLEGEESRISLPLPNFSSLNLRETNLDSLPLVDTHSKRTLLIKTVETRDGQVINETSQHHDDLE

B1: Lamina-associated polypeptide 2, isoform alpha (protein, UniProt P42166 1-694)
chain: MPEFLEDPSVLTKDKLKSELVANNVTLPAGEQRKDVYVQLYLQHLTARNRPPLPAGTNSKGPPDFSSDEEREPTPVLGSGAAAAGRSRAAVGRKATKKTDKPRQEDKDDLDVTELTNEDLLDQLVKYGVNPGPIVGTTRKLYEKKLLKLREQGTESRSSTPLPTISSSAENTRQNGSNDSDRYSDNEEGKKKEHKKVKSTRDIVPFSELGTTPSGGGFFQGISFPEISTRPPLGSTELQAAKKVHTSKGDLPREPLVATNLPGRGQLQKLASERNLFISCKSSHDRCLEKSSSSSSQPEHSAMLVSTAASPSLIKETTTGYYKDIVENICGREKSGIQPLCPERSHISDQSPLSSKRKALEESESSQLISPPLAQAIRDYVNSLLVQGGVGSLPGTSNSMPPLDVENIQKRIDQSKFQETEFLSPPRKVPRLSEKSVEERDSGSFVAFQNIPGSELMSSFAKTVVSHSLTTLGLEVAKQSQHDKIDASELSFPFHESILKVIEEEWQQVDRQLPSLACKYPVSSREATQILSVPKVDDEILGFISEATPLGGIQAASTESCNQQLDLALCRAYEAAASALQIATHTAFVAKAMQADISQAAQILSSDPSRTHQALGILSKTYDAASYICEAAFDEVKMAAHTMGNATVGRRYLWLKDCKINLASKNKLASTPFKGGTLFGGEVCKVIKKRGNKH
B2: RELT-like protein 1 (Fragment) (protein, UniProt Q8IUW5 24-271)
chain: SPLVAPDNGSSRTLHSRTETTPSPSNDTGNGHPEYIAYALVPVFFIMGLFGVLICHLLKKKGYRCTTEAEQDIEEEKVEKIELNDSVNENSDTVGQIVHYIMKNEANADVLKAMVADNSLYDPESPVTPSTPGSPPVSPGPLSPGGTPGKHVCGHHLHTVGGVVERDVCHRCRHKRWHFIKPTNKSRESRPRRQGEVTVLSVGRFRVTKVEHKSNQKERRSLMSVSGAETVNGEVPATPVKRERSGTE
B3: Coiled-coil domain-containing protein 51 (protein, UniProt Q96ER9 36-411)
chain: LCSPGPSQPGEKRPEEVALGLHHRLPALGRALGHSIQQRATSTAKTWWDRYEEFVGLNEVREAQGKVTEAEKVFMVARGLVREAREDLEVHQAKLKEVRDRLDRVSREDSQYLELATLEHRMLQEEKRLRTAYLRAEDSEREKFSLFSAAVRESHEKERTRAERTKNWSLIGSVLGALIGVAGSTYVNRVRLQELKALLLEAQKGPVSLQEAIREQASSYSRQQRDLHNLMVDLRGLVHAAGPGQDSGSQAGSPPTRDRDVDVLSAALKEQLSHSRQVHSCLEGLREQLDGLEKTCSQMAGVVQLVKSAAHPGLVEPADGAMPSFLLEQGSMILALSDTEQRLEAQVNRNTIYSTLVTCVTFVATLPVLYMLFKAS
B4: ER membrane protein complex subunit 1 (protein, UniProt Q8N766 23-993)
chain: YEDQVGKFDWRQQYVGKVKFASLEFSPGSKKLVVATEKNVIAALNSRTGEILWRHVDKGTAEGAVDAMLLHGQDVITVSNGGRIMRSWETNIGGLNWEITLDSGSFQALGLVGLQESVRYIAVLKKTTLALHHLSSGHLKWVEHLPESDSIHYQMVYSYGSGVVWALGVVPFSHVNIVKFNVEDGEIVQQVRVSTPWLQHLSGACGVVDEAVLVCPDPSSRSLQTLALETEWELRQIPLQSLDLEFGSGFQPRVLPTQPNPVDASRAQFFLHLSPSHYALLQYHYGTLSLLKNFPQTALVSFATTGEKTVAAVMACRNEVQKSSSSEDGSMGSFSEKSSSKDSLACFNQTYTINLYLVETGRRLLDTTITFSLEQSGTRPERLYIQVFLKKDDSVGYRALVQTEDHLLLFLQQLAGKVVLWSREESLAEVVCLEMVDLPLTGAQAELEGEFGKKADGLLGMFLKRLSSQLILLQAWTSHLWKMFYDARKPRSQIKNEINIDTLARDEFNLQKMMVMVTASGKLFGIESSSGTILWKQYLPNVKPDSSFKLMVQRTTAHFPHPPQCTLLVKDKESGMSSLYVFNPIFGKWSQVAPPVLKRPILQSLLLPVMDQDYAKVLLLIDDEYKVTAFPATRNVLRQLHELAPSIFFYLVDAEQGRLCGYRLRKDLTTELSWELTIPPEVQRIVKVKGKRSSEHVHSQGRVMGDRSVLYKSLNPNLLAVVTESTDAHHERTFIGIFLIDGVTGRIIHSSVQKKAKGPVHIVHSENWVVYQYWNTKARRNEFTVLELYEGTEQYNATAFSSLDRPQLPQVLQQSYIFPSSISAMEATITERGITSRHLLIGLPSGAILSLPKALLDPRRPEIPTEQSREENLIPYSPDVQIHAERFINYNQTVSRMRGIYTAPSGLESTCLVVAYGLDIYQTRVYPSKQFDVLKDDYDYVLISSVLFGLVFATMITKRLAQVKLLNRAWR
B5: Acyl-coenzyme A thioesterase 9, mitochondrial (Fragment) (protein, UniProt Q9Y305 22-439)
chain: LTQGPQNPKKQGIFHIHEVRDKLREIVGASTNWRDHVKAMEERKLLHSFLAKSQDGLPPRRMKDSYIEVLLPLGSEPELREKYLTVQNTVRFGRILEDLDSLGVLICYMHNKIHSAKMSPLSIVTALVDKIDMCKKSLSPEQDIKFSGHVSWVGKTSMEVKMQMFQLHGDEFCPVLDATFVMVARDSENKGPAFVNPLIPESPEEEELFRQGELNKGRRIAFSSTSLLKMAPSAEERTTIHEMFLSTLDPKTISFRSRVLPSNAVWMENSKLKSLEICHPQERNIFNRIFGGFLMRKAYELAWATACSFGGSRPFVVAVDDIMFQKPVEVGSLLFLSSQVCFTQNNYIQVRVHSEVASLQEKQHTTTNVFHFTFMSEKEVPLVFPKTYGESMLYLDGQRHFNSMSGPATLRKDYLVEP
B6: Annexin A1 (protein, UniProt P04083 1-346)
chain: MAMVSEFLKQAWFIENEEQEYVQTVKSSKGGPGSAVSPYPTFNPSSDVAALHKAIMVKGVDEATIIDILTKRNNAQRQQIKAAYLQETGKPLDETLKKALTGHLEEVVLALLKTPAQFDADELRAAMKGLGTDEDTLIEILASRTNKEIRDINRVYREELKRDLAKDITSDTSGDFRNALLSLAKGDRSEDFGVNEDLADSDARALYEAGERRKGTDVNVFNTILTTRSYPQLRRVFQKYTKYSKHDMNKVLDLELKGDIEKCLTAIVKCATSKPAFFAEKLHQAMKGVGTRHKALIRIMVSRSEIDMNDIKAFYQKMYGISLCQAILDETKGDYEKILVALCGGN

The molecules below were run against histidine six-tagged PTPRJ (human) (UniProt Q12913) (assay: affinity purification with mass spectrometry; PTPRJ-His6 captured on MagneHis poly(His)-avid magnetic beads from enriched membrane extracts (Mem-PER kit) of A549 cells three days after infection with Ad PTPRJ-His6 at MOI30; washes with 100 mM HEPES, 500 mM NaCl, pH 7.5; elution with 500 mM …; dimethyl labelling against a control eluate from cells with untagged wild-type PTPRJ).
“ATP synthase subunit alpha, mitochondrial (from UniProt P25705 44-553)” was tested, and the binding was “binds”. With CD98hc (from UniProt P08195 1-529) the binding was “binds”. In the case of Calnexin (from UniProt P27824 21-592), the binding is reported as “binds”. With “Endoplasmin (from UniProt P14625 22-803)” the binding was “binds”. For Gelsolin (from UniProt P06396 28-782), the binding was “binds”. “Heat shock 70 kDa protein 1A/1B (from UniProt P0DMV8 1-641)” was tested, and the binding was “binds”. In the case of Myosin-9 (from UniProt P35579 1-1960), the binding is reported as “binds”. Myosin-10 (from UniProt P35580 1-1976) was tested, and the binding was “binds”. In the case of “Plasma membrane calcium-transporting ATPase 1 (from UniProt P20020 1-1220)”, the binding is reported as “binds”. With “Probable ATP-dependent RNA helicase DDX5 (from UniProt P17844 1-614)” the binding was “binds”. In the case of “Pyruvate kinase PKM (from UniProt P14618 1-531)”, the binding is reported as “binds”. With “Ras GTPase-activating-like protein IQGAP1 (from UniProt P46940 1-1657)” the binding was “binds”. In the case of “Ras-related protein Rab-2A (from UniProt P61019 1-212)”, the binding is reported as “binds”. With “Ras-related protein Rab-5C (from UniProt P51148 1-216)” the binding was “binds”. For “Ras-related protein Rap-1b (Fragment) (from UniProt P61224 1-184)”, the binding was “binds”. “Signal recognition particle 54 kDa protein (from UniProt P61011 1-504)” was tested, and the binding was “binds”. For “Spectrin alpha chain, non-erythrocytic 1 (from UniProt Q13813 1-2472)”, the binding was “binds”. In the case of “Tropomyosin alpha-4 chain (from UniProt P67936 1-248)”, the binding is reported as “binds”. With Vimentin (from UniProt P08670 1-466) the binding was “binds”. For B1, the binding was “binds”. In the case of B2, the binding is reported as “binds”. With B3 the binding was “binds”. With B4 the binding was “binds”. For B5, the binding was “binds”. B6 was tested, and the binding was “binds”.
